For at least one compound, name, drawing or mass did not settle the structure.
Test system: Mouse dorsal root ganglion (DRG) axons
Experiment: Axon degeneration assay in mouse DRG drop culture
Type: cell-based

Q: How did the “axonal degeneration compared to the control sample” value (after intervals of 6 hours, 12 hours and 24 hours) turn out when `CN(C)c1n/c(=N/Cc2ccco2)ss1` [I^B-2] was run?
A: Its value is “substantial decrease in axonal degeneration”.

Q: What about the “state of injured axons in SEM micrographs” value (under degenerating conditions) of the same compound?
A: The value was “intact”.
